Measurements reported in PubChem BioAssay AID743454 (Peter MacCallum Cancer Centre, 2014)
Purpose: 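Search for knock-downs that restore vorinostat killing in resistant colon cancer cells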 (primary screen). Cells: human HCT116-VR colon cancer cells, selected for vorinostat resistance. Reagents: siRNA pool against human genes, 40 nM siRNA pool. Timing: vorinostat for 24 h, read-out about 72 h after transfection. Treatment: vorinostat at 2.5 µM final. Detection: 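Cell viability by CellTiter-Fluor and caspase 3/7 activity by luminescence, each scaled to mock wells per plate, duplicates averaged, then robust z-scored over all plates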. Reading the numbers: viability robust z-score: higher = more viable cells than screen typical; caspase robust z-score: higher = more caspase 3/7 activity than screen typical. Rule for the call: 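a knock-down is a hit when classed RV1 or RV2 for lowered viability, or CA1 or CA2 for caspase activation; those lethal without drug were dropped; hits were retested singly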.
The whole screen tested about 18,000 reagents; shown is a part drawn at random. Over the whole deposit, 450 (2.5%) were called active. 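Single biological run; no consistent viability z cut-off exists, so the class columns, not z-scores, define the calls.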 Entries without a mark were called inactive. Reagent sequences are not shown.

MTMR9 (GeneID 66036) | viability hit class = no change; caspase hit class = no change; viability robust z-score = 0.05; caspase robust z-score = 0.1
GDE1 (GeneID 51573) | viability hit class = no change; caspase hit class = no change; viability robust z-score = -0.81; caspase robust z-score = -0.94
PLCH1 (GeneID 23007) | viability hit class = no change; caspase hit class = no change; viability robust z-score = 0.72; caspase robust z-score = -0.32
PLEK2 (GeneID 26499) | viability hit class = no change; caspase hit class = no change; viability robust z-score = -0.8; caspase robust z-score = -0.01
RUNX1 (GeneID 861) | viability hit class = no change; caspase hit class = no change; viability robust z-score = -0.48; caspase robust z-score = 0.88
SERPINB6 (GeneID 5269) | viability hit class = no change; caspase hit class = no change; viability robust z-score = 0.08; caspase robust z-score = -0.64
KLK10 (GeneID 5655) | viability hit class = no change; caspase hit class = no change; viability robust z-score = 0.11; caspase robust z-score = 1.14
CDC5L (GeneID 988) | viability hit class = no change; caspase hit class = no change; viability robust z-score = -3.07; caspase robust z-score = 3.16

The list goes on, starting with the last 2 of the part before.
KLK10 (GeneID 5655) | viability hit class = no change; caspase hit class = no change; viability robust z-score = 0.11; caspase robust z-score = 1.14
CDC5L (GeneID 988) | viability hit class = no change; caspase hit class = no change; viability robust z-score = -3.07; caspase robust z-score = 3.16
LMX1B (GeneID 4010) | viability hit class = no change; caspase hit class = no change; viability robust z-score = 0.44; caspase robust z-score = -0.38
OR7E85BP (GeneID 650293) | viability hit class = no change (active); caspase hit class = CA2 (caspase activation); viability robust z-score = -0.71; caspase robust z-score = 6.98
DDX43 (GeneID 55510) | viability hit class = no change; caspase hit class = no change; viability robust z-score = -1.24; caspase robust z-score = 0.69
SWAP70 (GeneID 23075) | viability hit class = no change; caspase hit class = no change; viability robust z-score = -1.19; caspase robust z-score = 4.97
PHOX2A (GeneID 401) | viability hit class = no change; caspase hit class = no change; viability robust z-score = 1.32; caspase robust z-score = -0.99
SRRM2 (GeneID 23524) | viability hit class = no change; caspase hit class = no change; viability robust z-score = 0.3; caspase robust z-score = 1.64
THAP2 (GeneID 83591) | viability hit class = no change; caspase hit class = no change; viability robust z-score = 1.3; caspase robust z-score = -0.76
CFAP45 (GeneID 25790) | viability hit class = no change; caspase hit class = no change; viability robust z-score = 0.34; caspase robust z-score = 0.42
SREBF1 (GeneID 6720) | viability hit class = no change; caspase hit class = no change; viability robust z-score = -0.76; caspase robust z-score = -0.46
TRAM1L1 (GeneID 133022) | viability hit class = no change; caspase hit class = no change; viability robust z-score = -1.57; caspase robust z-score = 1.6
ZNF780B (GeneID 163131) | viability hit class = no change; caspase hit class = no change; viability robust z-score = -0.08; caspase robust z-score = -1.06
PCK2 (GeneID 5106) | viability hit class = no change; caspase hit class = no change; viability robust z-score = 0.37; caspase robust z-score = -0.14
SENP7 (GeneID 57337) | viability hit class = no change; caspase hit class = no change; viability robust z-score = -0.69; caspase robust z-score = -0.39
